Laboratory results published in PubChem BioAssay AID2685 (National Center for Advancing Translational Sciences (NCATS), 2010).
The other results are listed elsewhere or left out. Shown are side measurements of this screen, not its main read-out; they come without a call. Most of these compounds were active or inconclusive in the main read-out, so they are no random draw. Potencies come from curve fits of mixed quality, noted in brackets.

Test: qHTS Assay for Lipid Storage Modulators in Drosophila S3 Cells;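 as to cell number change: cells counted by Cell Tracker Red CMTPX staining in the red channel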
Settings: BODIPY lipid droplet fluorescence, 18-24 h; for cell number change: measured here: cell count max response, cells fed with added oleic acid
Summary of the method: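 Drosophila S3 cells loaded with oleic acid (400 uM, as added) and compounds at several concentrations; lipid droplets imaged by 488-nm laser-scanning cytometry, 500–530 nm intensity and object ratio to cell channel. Percent activity normalized to 20 uM Triacsin C.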

[1] = measured here: lipid fluorescence (Fed channel) AC50, cells fed with added oleic acid
[2] = measured here: cell number channel AC50, cells fed with added oleic acid

## OCc1ccccc1OCCCOc1cccc2cccnc12
  cell number change: -13.5%

## Cc1cccc(Nc2nnc(SCC3CCCCO3)s2)c1C (stereo unspecified)
  cell number change: -21.4%
[1]
  AC50: 0.0164 µM [falling, full curve, poor fit]

## COc1cccc(CN(C)C(=O)CCN=C2NS(=O)(=O)c3ccccc32)c1OC
  cell number change: 24.4%
[1]
  AC50: 0.82 µM [falling, full curve]

## CCO[C@@H]1OC(C(=O)Nc2ccccc2)=C[C@H](C2CC2)[C@H]1CCCO
  cell number change: -19.2%
[1]
  AC50: 0.0146 µM [falling, full curve]

## CN(C)c1ccc(C(=O)N2CCCC2)cc1
  cell number change: 14.9%
[1]
  AC50: 16.4 µM [falling, partial curve]

## O=S(=O)(NCc1ccncc1)c1ccc(Br)s1
  cell number change: -130%

## Cn1c(=NC(=O)c2cccc([N+](=O)[O-])c2)sc2ccccc21
  cell number change: 70.6%
[2]
  AC50: 0.082 µM [rising, partial curve, poor fit]
[1]
  AC50: 2.31 µM [rising, partial curve, poor fit]

## Cc1ccc(NC(=O)c2cc(Cl)ccc2[N+](=O)[O-])cc1C
  cell number change: 19.7%
[2]
  AC50: 1.3 µM [rising, full curve]

## Fc1ccc(NC(=S)N/N=C/c2ccc(F)c(F)c2)cc1
  cell number change: 39.4%
[2]
  AC50: 4.11 µM [rising, full curve]

## CCc1ccc(NC(=O)N(CCN2CCOCC2)Cc2ccc3c(c2)CCCN3CC)cc1
  cell number change: 127%
[2]
  AC50: 0.082 µM [rising, full curve]
[1]
  AC50: 23.1 µM [rising, partial curve]

## O=C(Nc1nnc(Cc2ccccc2)s1)Nc1ccccc1F
  cell number change: -4.46%
[2]
  AC50: 6.51 µM [falling, single point]

## O=C(/C=C/c1ccc([N+](=O)[O-])cc1)Oc1ccc(/C=N/NC(=O)c2ccncc2)cc1
  cell number change: -12.1%
[1]
  AC50: 5.8 µM [rising, single point]

## S=C(NCC1CCCO1)NC1CC1 (stereo unspecified)
  cell number change: -12.7%
[1]
  AC50: 29.1 µM [falling, single point]

## Cc1ccc(-c2csc(NC(=O)c3ccc([N+](=O)[O-])o3)n2)cc1
  cell number change: 12.2%
[1]
  AC50: 0.58 µM [falling, single point]

## COc1ccc(OC)c(-c2cc(C(=O)Nc3c(C)nn(Cc4ccccc4C)c3C)no2)c1
  cell number change: -3.91%
[1]
  AC50: 0.58 µM [rising, full curve, poor fit]

## COc1ccc2c(c1)C=C(C(=O)OCc1cccnc1)CO2
  cell number change: -4.76%
[1]
  AC50: 0.116 µM [falling, full curve, poor fit]

## COc1ccccc1CNC(=O)c1c(-c2ccccc2Cl)noc1C
  cell number change: 4.72%
[1]
  AC50: 11.6 µM [falling, partial curve]

## COC(=O)CN1C(=O)[C@H]2[C@@H](c3ccc(C)o3)N3C(=O)CN(CC4CC4)C(=O)[C@@]3(C)[C@H]2C1=O
  cell number change: 30.7%
[2]
  AC50: 3.66 µM [rising, partial curve, poor fit]
[1]
  AC50: 6.51 µM [falling, single point]

## CCn1cc(-c2cc(C(=O)O)c3ccccc3n2)cn1
  cell number change: 8.35%
[2]
  AC50: 0.517 µM [falling, single point]

## O=C(CCC(=O)N1CCN(c2ccccn2)CC1)Nc1nnc(C2CCCCC2)s1
  cell number change: -3.39%
[1]
  AC50: 0.0058 µM [falling, full curve, poor fit]

## COC(=O)CSc1nnc(-c2ccc(OC)c(OC)c2)o1
  cell number change: 24.6%

## Cc1cc(=O)oc2c(C(=O)c3ccccc3)c(OCC(N)=O)ccc12
  cell number change: 8.45%
[2]
  AC50: 2.59 µM [rising, partial curve, poor fit]
[1]
  AC50: 2.59 µM [rising, partial curve]

## CC1=CC(C)(C)Nc2ccc(OC(=O)c3cccnc3)cc21
  cell number change: 3.93%
[2]
  AC50: 6.51 µM [falling, single point]
[1]
  AC50: 4.61 µM [falling, single point]

## C(=N\NC1=Nc2cccc3cccc1c23)/c1ccccc1
  cell number change: 1.73%
[1]
  AC50: 3.26 µM [falling, partial curve, poor fit]

## CCOC(=O)c1cccc(NC(=O)CCc2nnc3ccc(N4CCN(C)CC4)nn23)c1
  cell number change: 21.4%
[1]
  AC50: 1.64 µM [rising, partial curve]

## CCOC(=O)c1c(NC(=O)CNCC(O)CO)sc(C)c1C (stereo unspecified)
  cell number change: -1.52%
[1]
  AC50: 29.1 µM [rising, single point]

## O=C1Nc2ccccc2OC1CC(=O)N1CCN(c2cccc(C(F)(F)F)c2)CC1 (stereo unspecified)
  cell number change: -3.21%

## COc1ccc2c(c1)[nH]c1c(=O)n(/N=C/C3C(C)C=C(C)CC3C)c(=O)[nH]c12 (stereo unspecified)
  cell number change: -58.5%
[2]
  AC50: 3.26 µM [falling, full curve]

## Cc1cc(=O)nc2c3ccccc3n(CC(=O)NCCCN3CCOCC3)n12
  cell number change: -39.5%
[2]
  AC50: 0.146 µM [falling, full curve]

## COC(=O)c1ccc(-n2nnnc2SCc2ccccc2OC)cc1
  cell number change: -22.2%
[1]
  AC50: 2.06 µM [falling, partial curve, poor fit]

## CCCN1CCN(CCCNC(=O)C(CC)n2nc(C)n3c(cc4occc43)c2=O)CC1 (stereo unspecified)
  cell number change: 8.78%
[1]
  AC50: 29.1 µM [rising, single point]

## CCOC(=O)c1nn(-c2cccc(OC)c2)c(-c2ccccc2)c1C(=O)c1ccccc1
  cell number change: -2.01%
[1]
  AC50: 29.1 µM [rising, partial curve, poor fit]

## COc1ccc(C)cc1NCc1ccc(OC)c(C)c1OC
  cell number change: -6.74%
[1]
  AC50: 29.1 µM [falling, single point]

## Nc1ccc(Oc2ccc3c(c2)C(=O)NC3=O)cc1
  cell number change: -9.85%

## CCN(CC)S(=O)(=O)c1cccc(NC(=O)C2SC(=Nc3ccc(C)cc3C)C(C(=O)NCC3CCCO3)=C2N)c1 (stereo unspecified)
  cell number change: 29.5%
[1]
  AC50: 6.51 µM [falling, single point]

## O=C(COC(=O)c1ccc(O)cc1)NCc1ccc2c(c1)OCO2
  cell number change: 32.7%

## CS(=O)(=O)N(CCc1ccccc1)CC(=O)N1CCc2ccccc2C1
  cell number change: -1.16%
[1]
  AC50: 23.1 µM [rising, single point]

## CSc1ccc(S(=O)(=O)N2CCC(C(=O)NCc3cccnc3)CC2)cc1
  cell number change: -14.5%

## CCN1CCN(Cc2nnc(-c3ccc(C)cc3)o2)CC1
  cell number change: 9.93%
[1]
  AC50: 29.1 µM [rising, single point]

## Cc1ccc(SCC(=O)OCC(=O)NC(C)c2ccc(F)cc2)cc1 (stereo unspecified)
  cell number change: -4.54%
[1]
  AC50: 0.651 µM [rising, full curve]

## CC(=O)n1cc(/C=N/NC(=O)c2ccccc2Cl)c2ccccc21
  cell number change: 3.34%
[1]
  AC50: 6.51 µM [rising, single point]

## COC(=O)c1cc(=O)c2cccc(OC)c2[nH]1
  cell number change: -48.5%
[2]
  AC50: 29.1 µM [falling, single point]
[1]
  AC50: 29.1 µM [falling, single point]

## O=C(O)COc1ccc(Br)cc1C(c1c(C(=O)O)[nH]c2ccccc12)c1c(C(=O)O)[nH]c2ccccc12
  cell number change: -10.6%

## O=C1C(=O)c2ccccc2C(O)=C1c1ccccc1F
  cell number change: -12.5%
[1]
  AC50: 7.31 µM [falling, single point]

## O=CN1CCN(C(C(=O)NC2CCCCC2)c2cc3c(cc2[N+](=O)[O-])OCO3)CC1 (stereo unspecified)
[2]
  AC50: 2.31 µM [rising, partial curve]
[1]
  AC50: 2.31 µM [rising, partial curve]

## COc1ccc(S(=O)(=O)N2CCNC(=O)C2)cc1Br
[1]
  AC50: 14.6 µM [rising, partial curve]

## CCCn1nnnc1SCC(=O)N1CCCCC1
  cell number change: -6.41%

## COc1ccccc1NC(=O)c1c(Nc2ccccc2C)sc(C(=O)Nc2cccc(Cl)c2)c1N
[1]
  AC50: 5.8 µM [falling, partial curve, poor fit]

## COc1ccc(CCNc2nc(-c3cccc(NC(C)=O)c3)cs2)cc1OC
  cell number change: 108%

## CC(/C=N/NC(=O)c1cccc([N+](=O)[O-])c1)=C\c1ccccc1
  cell number change: 12.9%
[2]
  AC50: 4.11 µM [rising, single point]
[1]
  AC50: 4.11 µM [rising, partial curve]

## Cc1ccc(NC(=O)CN2C(=O)NC3(CCc4ccccc43)C2=O)cc1S(=O)(=O)N1CCCCC1 (stereo unspecified)
[2]
  AC50: 2.06 µM [rising, partial curve, poor fit]

## O=C(CCSc1nnc2ccc3ccccc3n12)Nc1ccc(F)cc1
  cell number change: 58.1%
[2]
  AC50: 29.1 µM [rising, single point]
[1]
  AC50: 0.0651 µM [falling, full curve]

## CCN(Cc1ccncc1)Cc1c(O)ccc2ccccc12
[1]
  AC50: 0.58 µM [falling, single point]

## C/C(=N\NC(N)=S)c1ccccc1
  cell number change: 31.9%
[2]
  AC50: 4.11 µM [rising, full curve, poor fit]

## COc1ccc(CCNC(=O)c2cc(=O)c3cc(C)ccc3o2)cc1OC
  cell number change: 16.9%
[1]
  AC50: 0.164 µM [falling, full curve, poor fit]

## Cc1ccc([N+](=O)[O-])cc1NC(=O)C1CCN(S(C)(=O)=O)CC1
  cell number change: -1.14%

## Cc1ccc(NC(=O)CCc2nnc(SCC(=O)Nc3ccccc3C)n2C)cc1Cl
  cell number change: 50.9%

## CC1CCCCN1Cc1cnc(Cl)s1 (stereo unspecified)
  cell number change: -41.6%
[2]
  AC50: 1.03 µM [falling, full curve]
[1]
  AC50: 0.82 µM [falling, full curve]

## CCOC(=O)N1CCN(c2nc(-c3ccccc3)c3ccccc3n2)CC1
  cell number change: 57%
[2]
  AC50: 16.4 µM [rising, single point]
[1]
  AC50: 18.4 µM [rising, single point]

## CCOC(=O)c1ccc(NC(=O)CCc2nnc3ccc(N4CCCC4)nn23)cc1
  cell number change: -28.7%
[1]
  AC50: 13 µM [falling, partial curve]

## CC1CCc2ccccc2N1CC(=O)Nc1cccc(S(=O)(=O)N2CCCC2)c1 (stereo unspecified)
  cell number change: 4.02%

## CCc1nnc2sc(-c3ccc(NC(=O)c4ccc5c(c4)OCCO5)cc3)nn12
[2]
  AC50: 3.26 µM [rising, partial curve]
